Experimental data as given in paper PMC8920235.

Biological target: T1, interferon regulatory factor 3 (mouse (endogenous in Raw 264.7)) (UniProt P70671)
T1 sequence: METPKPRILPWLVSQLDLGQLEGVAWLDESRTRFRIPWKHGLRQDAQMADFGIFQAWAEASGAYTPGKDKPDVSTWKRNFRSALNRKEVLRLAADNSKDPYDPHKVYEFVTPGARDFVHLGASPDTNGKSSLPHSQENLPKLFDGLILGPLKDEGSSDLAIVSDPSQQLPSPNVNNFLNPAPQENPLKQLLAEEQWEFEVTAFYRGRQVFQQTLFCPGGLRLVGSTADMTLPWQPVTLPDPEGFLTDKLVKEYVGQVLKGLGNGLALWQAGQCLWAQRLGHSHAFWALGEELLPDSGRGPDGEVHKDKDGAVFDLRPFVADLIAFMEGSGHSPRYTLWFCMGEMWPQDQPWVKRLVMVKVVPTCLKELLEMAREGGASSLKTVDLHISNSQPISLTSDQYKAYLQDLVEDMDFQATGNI
Assay: co-IP; Raw 264.7 cells pretreated with the indicated concentration of QUIN or DMSO for 8 h; NP40 lysis buffer; extracts precipitated with anti-IRF3 or anti-CaMKII antibody overnight at 4°C; beads washed three times (50 mM Tris pH 7.4, 500 mM NaCl, 0.1% NP-40, 1 mM EDTA); Western blot with the other antibody

binding: binds
Substance: Calcium/calmodulin-dependent protein kinase II (mouse (endogenous in Raw 264.7)) (enzyme)

No constants are given. Whether binding was seen depends on the method and setting. In cells and extracts the contact can be indirect. Binding calls can cover weak binding; strength is not graded here.
